Test results as given in WO2011161189A1.
Results are given in words; binding and its absence hold for the method and conditions named. Some entries that bind do so weakly or less than the wild type.

By UniProt entry, the sequences of proteins in these tests, tags left out. Where a name states a change or a piece, a line headed by the entry shows the natural chain unless it says otherwise. Chains listed by the source or under a name are the forms on record and can include a tag or linker.
human hepsin (recombinant EE-tagged, amino acids 45-417, enzymatically active two-chain form) (P05981, form named): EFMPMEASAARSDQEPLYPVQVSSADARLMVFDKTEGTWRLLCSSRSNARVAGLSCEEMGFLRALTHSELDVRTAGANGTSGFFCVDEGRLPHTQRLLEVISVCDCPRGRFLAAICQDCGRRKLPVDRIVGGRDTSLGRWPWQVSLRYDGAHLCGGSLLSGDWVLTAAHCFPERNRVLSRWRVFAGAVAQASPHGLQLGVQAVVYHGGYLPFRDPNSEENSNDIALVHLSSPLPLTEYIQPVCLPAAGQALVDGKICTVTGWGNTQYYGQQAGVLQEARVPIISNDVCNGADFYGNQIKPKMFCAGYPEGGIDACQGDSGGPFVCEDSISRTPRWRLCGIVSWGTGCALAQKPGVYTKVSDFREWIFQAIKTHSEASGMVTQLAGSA

Assays:
[1] = biological target: human hepsin (recombinant EE-tagged, amino acids 45-417, enzymatically active two-chain form) (human) (UniProt P05981); assay: SPR, antibody captured on Protein G, hepsin 0-200 nM injected, 37 C
[2] = biological target: human hepsin (recombinant EE-tagged, amino acids 45-417, enzymatically active two-chain form) (human) (UniProt P05981); assay: SPR, antibody immobilised on CM5 chip, 50 nM hepsin added
[3] = biological target: human hepsin (recombinant EE-tagged, amino acids 45-417, enzymatically active two-chain form) (human) (UniProt P05981); assay: SPR, 50 nM 2.7.35 injected on hepsin held by immobilised 2.3.35 or 2.14.5
[4] = biological target: human hepsin (recombinant EE-tagged, amino acids 45-417, enzymatically active two-chain form) (human) (UniProt P05981); assay: SPR, 50 nM 2.3.35 injected on hepsin held by immobilised 2.7.35 or 2.14.5
[5] = biological target: human hepsin (recombinant EE-tagged, amino acids 45-417, enzymatically active two-chain form) (human) (UniProt P05981); assay: complex formation, checked by size exclusion chromatography and SDS-PAGE; crystallised
[6] = biological target: human hepsin (recombinant EE-tagged, amino acids 45-417, enzymatically active two-chain form) (human) (UniProt P05981); assay: SPR, antibody captured on Protein A, hepsin 0-200 nM injected, 37 C

Binder	binding [2]	binding [6]	other results
Mab 2.7.35 (antibody, V domains shown) VH: QIQLVQSGPELKKPGETVKISCKASGYTFTDYSMRWVKQAPGKGLKWMGWINTETGNPTYADDFKGRFAFSLETSASTAYLQINNLKNEDTARYFCARGFAYWGQGTLVTVSA VL: QAVVTQESALTTSPGETVTLTCRSSTGAVTTSNYANWVQEKPDHLFTGLIGDTNNRAPGVPARFSGSLIGDKAALTITGAQTEDEAIYFCALWYSNHFIFGSGTKVTVL	binds	–	binding [1]: binds; binding [3]: binds
Mab 2.3.35 (antibody, V domains shown) VH: QVQLQQSGPELVKPGASVKVSCKASGYTFTDFVINWVKQRTGQGLEWIGEIYPRSNSIYSNEKFKGKATLTTDKSSNTAYMQVSSLTSEDSAVYFCARGSGDYAMDYWGQGTSVTVSS VL: ENVLTQSPAIMSASPGEKVTMTCSASSSVTYMHWYQQKSSTSPKLWIYDTSKLASGVPGRFSGSGSGNSYSLTIRSMEAEDVATYFCFQGSGFPLTFGGGTKLEIK	binds	–	binding [4]: binds
Mab55-Fab fragment (Fab, V domains shown) VH: QVQLVQSGSELKKPGASVKVSCKASGYTFTDYSMRWVRQAPGQGLEWMGWINTETGSPTYADDFKGRFVFSLDTSVSTAYLQISSLKAEDTAVYYCARGFAYWGQGTLVTVSS VL: QTVVTQEPSLTVSPGGTVTLTCRSSTGAVTTSNYANWVQQKPGQAFRGLIGDTNNRAPWTPARFSGSLLGGKAALTLSGVQPEDEAEYYCALWYSNHFIFGSGTKVTVL	–	–	binding [5]: binds
chimeric Mab 2.7.35 (antibody, V domains shown) VH: QIQLVQSGPELKKPGETVKISCKASGYTFTDYSMRWVKQAPGKGLKWMGWINTETGNPTYADDFKGRFAFSLETSASTAYLQINNLKNEDTARYFCARGFAYWGQGTLVTVSA VL: QAVVTQESALTTSPGETVTLTCRSSTGAVTTSNYANWVQEKPDHLFTGLIGDTNNRAPGVPARFSGSLIGDKAALTITGAQTEDEAIYFCALWYSNHFIFGSGTKVTVL	–	binds	–
Mab55 (antibody, V domains shown) VH: QVQLVQSGSELKKPGASVKVSCKASGYTFTDYSMRWVRQAPGQGLEWMGWINTETGSPTYADDFKGRFVFSLDTSVSTAYLQISSLKAEDTAVYYCARGFAYWGQGTLVTVSS VL: QTVVTQEPSLTVSPGGTVTLTCRSSTGAVTTSNYANWVQQKPGQAFRGLIGDTNNRAPWTPARFSGSLLGGKAALTLSGVQPEDEAEYYCALWYSNHFIFGSGTKVTVL	–	binds	–
